# PubChem BioAssay AID1259405 | NCATS | 2018
# Assay: 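Mouse-designed siRNAs used to find CHO productivity engineering targets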 (primary screen)
# Cell system: Chinese hamster CHO-K1 ovary cells with stable secreted eGFP expression
# Reagents: single siRNA against mouse genes, 0.8 pmol siRNA per well (2 µl of 400 nM stock)
# Duration: 3 days
# Detection: 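Percent of the per-plate non-targeting control median for intracellular GFP per well by laser scanning cytometry and for cell viability by ATP luminescence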
# Direction: GFP, % of control: higher = more GFP per well, higher productivity; viability (ATP), % of control: higher = more viable cells (more ATP)
# Rule for the call: 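a knock-down is called active if GFP reaches 120% or more of non-targeting control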
# Here is an unselected part of about 50,000 deposited reagents. Of all reagents, about 4,000 (8%) were called active. 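Mouse siRNA library applied to hamster cells; one well for each siRNA.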 The numbers tell different reagents against one gene apart. Reagent sequences are not shown.
target,reagent no.,"GFP, % of control","viability (ATP), % of control",call
Slc3a2 (GeneID 17254),1,96.1,72,inactive
Slc3a2 (GeneID 17254),2,47.6,76.7,inactive
Slc3a2 (GeneID 17254),3,65.8,72.7,inactive
Cmtm2b (GeneID 75502),1,63.7,77.9,inactive
Cmtm2b (GeneID 75502),2,128,79.9,active
Cmtm2b (GeneID 75502),3,77.6,103,inactive
Fcgr2b (GeneID 14130),1,46.7,51.7,inactive
Fcgr2b (GeneID 14130),2,60,77.5,inactive
Fcgr2b (GeneID 14130),3,97.9,82.8,inactive
Btg3 (GeneID 12228),1,51.6,74.4,inactive
Btg3 (GeneID 12228),2,99.7,89.3,inactive
Btg3 (GeneID 12228),3,107,141,inactive
Spata3 (GeneID 70060),1,73.8,60.7,inactive
Spata3 (GeneID 70060),2,95.4,74,inactive
Spata3 (GeneID 70060),3,53.9,61.2,inactive
Dcc (GeneID 13176),1,70.5,69.2,inactive
Dcc (GeneID 13176),2,94.7,83,inactive
Nup153 (GeneID 218210),1,116,88.8,inactive
Nup153 (GeneID 218210),2,105,103,inactive
Adra1b (GeneID 11548),1,147,66.5,active
Adra1b (GeneID 11548),2,108,71,inactive
Adra1b (GeneID 11548),3,61.9,57,inactive
Dctn4 (GeneID 67665),1,69.4,78.5,inactive
Dctn4 (GeneID 67665),2,66,73.1,inactive
Dctn4 (GeneID 67665),3,59.3,63.2,inactive
Ctrb1 (GeneID 66473),1,104,66.8,inactive
Ctrb1 (GeneID 66473),2,81.4,40.4,inactive
Ctrb1 (GeneID 66473),3,63.5,68.9,inactive
Vipr2 (GeneID 22355),1,69.9,35.8,inactive
Vipr2 (GeneID 22355),2,71.3,72.2,inactive
Vipr2 (GeneID 22355),3,82.8,91.4,inactive
Or5h17 (GeneID 258478),1,59.5,92.4,inactive
Or5h17 (GeneID 258478),2,36.2,29.9,inactive
Or5h17 (GeneID 258478),3,43.8,103,inactive
Xpnpep1 (GeneID 170750),1,53.9,48.4,inactive
Xpnpep1 (GeneID 170750),2,48.9,39.8,inactive
Xpnpep1 (GeneID 170750),3,84.9,79.6,inactive
Krt4 (GeneID 16682),1,139,115,active
Krt4 (GeneID 16682),2,50.4,50.8,inactive
Or8s16 (GeneID 257943),1,85,93.1,inactive
Or8s16 (GeneID 257943),2,93.1,83.8,inactive
Or8s16 (GeneID 257943),3,75.5,78.1,inactive
Socs2 (GeneID 216233),1,103,30.2,inactive
Socs2 (GeneID 216233),2,161,61.8,active
Socs2 (GeneID 216233),3,53.9,60.1,inactive
Or5b104 (GeneID 258568),1,72.3,48.7,inactive
Or5b104 (GeneID 258568),2,100,86.2,inactive
Or5b104 (GeneID 258568),3,71.7,59.9,inactive
Scfd1 (GeneID 76983),1,150,86.7,active
Scfd1 (GeneID 76983),2,83,58.7,inactive
Scfd1 (GeneID 76983),3,58,78.1,inactive
Celsr1 (GeneID 12614),1,84.9,102,inactive
Celsr1 (GeneID 12614),2,63.2,57.9,inactive
Celsr1 (GeneID 12614),3,96.6,101,inactive
Fpr-rs3 (GeneID 14290),1,37.4,43.7,inactive
Fpr-rs3 (GeneID 14290),2,65.4,92.1,inactive
Fpr-rs3 (GeneID 14290),3,59.4,69.9,inactive
Gata6 (GeneID 14465),1,53,63.6,inactive
Gata6 (GeneID 14465),2,65.1,68.6,inactive
Cacul1 (GeneID 78832),1,27.6,37.5,inactive
Cacul1 (GeneID 78832),2,13,48.4,inactive
Cacul1 (GeneID 78832),3,58.8,75.2,inactive
Or51aa5 (GeneID 258722),1,68,37.7,inactive
Or51aa5 (GeneID 258722),2,70.6,51.3,inactive
Or51aa5 (GeneID 258722),3,30.2,54.4,inactive
Kcnj12 (GeneID 16515),1,99.3,98,inactive
Kcnj12 (GeneID 16515),2,68.5,89.7,inactive
Kcnj12 (GeneID 16515),3,71,61.2,inactive
Sox3 (GeneID 20675),1,139,119,active
Sox3 (GeneID 20675),2,111,70.4,inactive
Sox3 (GeneID 20675),3,77.6,85.2,inactive
Ceacam1 (GeneID 26365),1,89.1,45.5,inactive
Ceacam1 (GeneID 26365),2,42.6,73.7,inactive
Ceacam1 (GeneID 26365),3,76.9,70.6,inactive
Hs6st1 (GeneID 50785),1,288,157,active
Hs6st1 (GeneID 50785),2,86.3,82.7,inactive
Hs6st1 (GeneID 50785),3,64.8,49,inactive
Bcl2a1c (GeneID 12046),1,66.9,54.9,inactive
Bcl2a1c (GeneID 12046),2,69.6,83.5,inactive
Bcl2a1c (GeneID 12046),3,43.1,32.1,inactive
Cpne2 (GeneID 234577),1,92.2,80.9,inactive
Cpne2 (GeneID 234577),2,91.4,86.7,inactive
Cpne2 (GeneID 234577),3,110,133,inactive
Ppp3r2 (GeneID 19059),1,83,107,inactive
Ppp3r2 (GeneID 19059),2,45.5,68.5,inactive
Ppp3r2 (GeneID 19059),3,64.1,81.5,inactive

Copied from the listing, 12 entries:
target,reagent no.,"GFP, % of control","viability (ATP), % of control",call
Or5b104 (GeneID 258568),1,72.3,48.7,inactive
Or5b104 (GeneID 258568),2,100,86.2,inactive
Or5b104 (GeneID 258568),3,71.7,59.9,inactive
Scfd1 (GeneID 76983),1,150,86.7,active
Scfd1 (GeneID 76983),2,83,58.7,inactive
Scfd1 (GeneID 76983),3,58,78.1,inactive
Celsr1 (GeneID 12614),1,84.9,102,inactive
Celsr1 (GeneID 12614),2,63.2,57.9,inactive
Celsr1 (GeneID 12614),3,96.6,101,inactive
Fpr-rs3 (GeneID 14290),1,37.4,43.7,inactive
Fpr-rs3 (GeneID 14290),2,65.4,92.1,inactive
Fpr-rs3 (GeneID 14290),3,59.4,69.9,inactive
